The record followed here is PMC4805166 (PLoS ONE, 2016).

A short description of this data set: general procedure: Fmoc solid-phase peptide synthesis; Fmoc-Rink-MBHA resin (0.4 mmol/g); Oxyma/DIPCDI. The settings on record: whole synthesis, analytical HPLC, Kromasil 100 C18, detection at 220 nm.
Turning to c(K(CO-C3H7)KLKKFKKLQ), the “purity (crude or final not stated)” value came to 95%.
Under c(K(CO-C3H7)KLKKHKKLQ) stands 88%.
For c(K(CO-nC5H11)KLKKFKKLQ) the value was 99%; for c(K(CO-nC5H11)KLKKHKKLQ), 91%.
Under c(KK(CO-C3H7)LKKFKKLQ) stands 99%; under c(KK(CO-C3H7)LKKHKKLQ), 89%; under c(KK(CO-nC5H11)LKKFKKLQ), 92%.
As for c(KK(CO-nC5H11)LKKHKKLQ), the “purity (crude or final not stated)” value was 96%.
Turning to c(KKLK(CO-nC5H11)KFKKLQ), the “purity (crude or final not stated)” value is reported as 99%.
For c(KKLKK(CO-C3H7)FKKLQ) the value was 96%; for c(KKLKK(CO-C3H7)HKKLQ), 88%; for c(KKLKK(CO-C3H7)fKKLQ), 97%.
Under c(KKLKK(CO-C4H9)FKKLQ) stands 97%.
Turning to c(KKLKK(CO-C6H13)FKKLQ), the “purity (crude or final not stated)” value is listed as 91%.
For c(KKLKK(CO-C7H15)FKKLQ) the value was 87%; for c(KKLKK(CO-C7H15)HKKLQ), 87%; for c(KKLKK(CO-C7H15)fKKLQ), 86%.
For c(KKLKK(CO-C8H17)FKKLQ) the value was 86%.
For c(KKLKK(CO-C11H22OH)FKKLQ) the value was 82%; for c(KKLKK(CO-C11H23)FKKLQ), 83%.
For the substance c(KKLKK(CO-C15H31)FKKLQ), the “purity (crude or final not stated)” value came out at 85%.
Consider c(KKLKK(CO-isoC5H11)FKKLQ), for which the “purity (crude or final not stated)” value is reported as 87%.
For the substance c(KKLKK(CO-isoC5H11)HKKLQ), the “purity (crude or final not stated)” value is 90%.
Regarding c(KKLKK(CO-isoC5H11)fKKLQ), the “purity (crude or final not stated)” value was 96%.
In the case of c(KKLKK(CO-nC5H11)FKKLQ), the “purity (crude or final not stated)” value came out at 91%.
Under c(KKLKK(CO-nC5H11)HKKLQ) stands 89%; under c(KKLKK(CO-nC5H11)fKKLQ), 99%; under c(KKLKK(LK-CO-C3H7)HKKLQ), 99%.
For c(KKLKK(LK-CO-C3H7)fKKLQ) the value was 97%; for c(KKLKK(LK-CO-nC5H11)FKKLQ), 98%.
For c(KKLKK(LK-CO-nC5H11)HKKLQ) the value was 91%; for c(KKLKK(LK-CO-nC5H11)fKKLQ), 92%.
For c(KKLKKFK(CO-nC5H11)KLQ), the “purity (crude or final not stated)” value was found to be 98%.
For c(KKLKKFKK(CO-nC5H11)LQ) the value was 99%; for c(KKLKk(CO-C3H7)FKKLQ), 99%.
c(KKLKk(CO-C7H15)FKKLQ): the “purity (crude or final not stated)” value is 99%.
Regarding c(KKLKk(CO-isoC5H11)FKKLQ), the “purity (crude or final not stated)” value was determined as 95%.
Under c(KKLKk(CO-nC5H11)FKKLQ) stands 91%.
For c(KKLKk(LK-CO-C3H7)FKKLQ), the “purity (crude or final not stated)” value amounted to 97%.
With c(KKLKk(LK-CO-nC5H11)FKKLQ), the “purity (crude or final not stated)” value was 95%.
On to c(Kk(CO-C3H7)LKKFKKLQ), for which the “purity (crude or final not stated)” value worked out at 97%.
c(Kk(CO-nC5H11)LKKFKKLQ): the “purity (crude or final not stated)” value was determined as 94%.
Under c(k(CO-C3H7)KLKKFKKLQ) stands 89%; under c(k(CO-nC5H11)KLKKFKKLQ), 97%.
